Measured values from patent EP0402852A1 (priority 1989, dated 1990).

Test: general procedure: solution-phase peptide synthesis; BOP/NMM (Examples 1-3); DCC/HOBT (Example 6)
Details: for conjugation yield: conjugation step; for step yield: late stage modification step

## PEPTIDE1{[4-BCEA-Bz].T.Q.W.A.V.G.L.[Nle].[am]}$$$$V2.0
  conjugation yield: 50%

## PEPTIDE1{[ClEtN(NO)CO].T.Q.W.A.V.G.L.[Nle].[am]}$$$$V2.0
  step yield: 73%

## PEPTIDE1{[ClCH2-Nle-Suc].T.Q.W.A.V.G.L.M.[am]}$$$$V2.0
  conjugation yield: 40%

## PEPTIDE1{[4-BCEA-Bz].T.Q.W.A.V.G.H.L.M.[am]}$$$$V2.0
Run 1
  step yield: 71% and 36%

## PEPTIDE1{[4-BCEA-Bz].T.Q.W.A.V.G.L.M.[am]}$$$$V2.0
Run 1
  conjugation yield: 90% and 50%

Values joined by “and” are separate entries in the source; they are usually repeats but may differ in a detail not shown here. Equal entries are not always repeated. Some peptides are written in HELM: one residue between dots, names in brackets for other building blocks, links after the first $.
